Source: patent US6046224A, “12 (S)--hete receptor blockers” (City of Hope, priority 1998, dated 2000)
“Also recorded” adds a separate entry of the source. Like-named read-outs stand apart in the source and are kept apart here. For at least one compound, name, drawing or mass did not settle the structure.

Experiments:
[1] = system: 12(S)-HETE receptor (CHO-AT1a cells); test: [3H]12(S)-HETE binding to CHO-AT1a cells; parameters: species or system Chinese hamster; conditions: 4° C.
Procedure: Kinetics of [^3 H]12(S)-HETE binding to CHO-AT1a cells. FIGS. 1 and 2 are a competition curves which examine the specificity of [^3 H]12(S)-HETE binding. CHO-AT1a cells were grown to confluence in 24 well tissue culture dishes in HAM's F12 medium containing 10% fetal calf serum. The cells were then rinsed and placed in fresh medium, HAM's F12/HEPES with no other additives (450 µl per well). Serial dilutions of unlabeled 12(S)-HETE or DuP654 were added to the wells. Commercial unlabeled 12(S)-HETE (BioMol Corp.) was dried and reconstituted in ethanol to obtain a stock solution of 5 mM. DuP654 was dissolved in DMSO to get a stock solution of 5 mM. These were then serially diluted and added in a volume of 1 u1 to the wells to obtain the final concentrations indicated. Then [^3 H]12(S)-HETE (10,000 cpm in a volume of 50 µl per well) was added from a stock solution obtained by adding the tracer to the medium. The plates were then incubated at 4° C. with continuous shaking for 2 hr. The cells were then washed 2 times with cold PBS and lysed in 0.3N NaOH (200 u1). Radioactivity in the cell lysates was quantitated in scintillation counter. Affinities and binding constants were obtained using […] computer software (Mlab, Civilized Software Inc., Bethesda, Md.). […]
Blockade of 12(S)-HETE binding by pertussis toxin. […] After incubation and washing, radioactivity in the cell lysates was quantitated. […]

[2] = system: 12(S)-HETE binding sites (mock transfected cells); test: 12(S)-HETE binding to mock transfected cells; parameters: species or system Chinese hamster; conditions: [3H]12(S)-HETE
CHO-AT1a cells [3] = test: Growth/mitogenesis of CHO-AT1a cells; format: cell-based, Chinese hamster; conditions: 0.1 μM
Procedure: Partial blockade of 12(S)-HETE mitogensis by the specific angiotensin AT1a receptor antagonist, Losartan, in CHO-AT1a cells. (FIG. 5) CHO-AT1a cells were plated in 12-well dishes (about 5-10,000 cells per well) for 24 hr. in growth medium consisting of HAM's, F12+10% FCS. They were then serum depleted for 72 hours by replacing the medium with HAM's F12+0.1% BSA. This medium was then freshly replaced along with AII or 12-HETE (0.1 μM each) prior to addition of drug to the cells. Losartan was added as a solution in water to the cells 15 min. prior to the addition of AII or 12-HETE. Fresh medium containing the same concentrations of AII or 12(S)-HETE plus Losartan was replaced every 48 hours. At the end of 8 days, the medium was removed, and 1 ml trypsin was added per well followed by 1 ml isoton after 3 min. These trypsinized cells were counted on a Coulter counter. […] 12-HETE binding (FIG. 4).
The three cell lines, CHO-AT1a, CHO-AT1b and mock transfected CHO cells were gifts from Dr. Eric Clauser (Inserm Unit, Paris, France). These cells were plated in 12 well dishes in HAM's F12 medium +10% FCS. After 72 hours serum depletion in HAM's F12+0.05% FCS, the cells were treated with AII or 12(S)-HETE (0.1 μM). Cells counts (after trypsinization) were taken at 48 hour intervals and fresh medium along with AII or 12-HETE added at these 48 hour intervals.

[4] = system: mock transfected cells (pSVneo); test: Mitogenic effect in mock transfected (pSVneo) CHO cells; format: cell-based, Chinese hamster; conditions: 0.1 μM
[5] = system: CHO cells overexpressing the angiotensin AT1b receptor; test: Mitogenic effect in CHO-AT1b cells; format: cell-based, Chinese hamster; conditions: 0.1 μM
PAK = PAK activity in CHO-AT1a cells; format: cell-based, Chinese hamster; conditions: 10^-7 M 12(S)-HETE
Procedure: CHO-AT1a cells were gently washed and placed in depletion medium (HAM's F-12 medium containing 1 mg.backslash.ml BSA and 20 mM HEPES, ph 7.4) for 72 hours prior to use. After incubation for 30 minutes, the cells were treated with 10^-7 M 12(S)-HETE or with ethanol. The 12(S)-HETE treatment was terminated by washing twice with PBS and adding 300 μl lysis buffer (50 mM HEPES. pH 7.5, containing 150 mM NaCl, 5 mM MgCl2, 1 mM EGTA, 50 mM NaF, 10 mM sodium pyrophosphate, 1% NP-40, 2.5% glycerol and 1 mM Na3 VO4 containing the protease inhibitors phenylmethylsulfonyl fluoride, leupeptin, and aprotonin) followed by sedimentation at 14,000× g at 4° C. for ten minutes. Protein determination was performed by the Bradford method. […] PAK activity was measured as follows. […] ATP, the kinase activity was measured in 60 μl kinase buffer. […] Results are expressed as stimulation over control.
For the PBD-transfected group, CHO-AT1a cells were transiently transfected with 15 μg PBD plasmid. […] The bottom panel illustrates the densitometric quantification. […] Results are expressed as stimulation over control. The PAK activity was measured as described in Example 7.
Cells were pretreated with different concentrations of the PI-3 kinase inhibitor, LY294002 or DMSO (control) for 30 minutes, then treated with 10^-7 M 12(S)-HETE or ethanol (control) for 10 minutes. PAK activity was measured as described in Example 7.

[6] = system: Human Aortic Endothelial Cells; test: Monocyte adhesion to human aortic endothelial cells, monocytes treated with 12(S)-HETE; format: cell-based; conditions: monocytes with 10^-7 M 12(S)-HETE, 12 minutes, room temperature or 37° C.
Procedure: Neutrophil binding is not increased. […] See Example 10.
Monocytes were incubated with 10^-9 M 12(S)-HETE for 12 minutes at room temperature (RT) or 37° C. or left untreated at room temperature and assayed for monocytes adhesion. Eight fields were counted for each experiment.

CHO-AT1a cells [7] = conditions: Wen et al. 1996; cited from earlier work
[8] = system: mock transfected cells (pSVneo); conditions: Wen et al. 1996; cited from earlier work
[9] = system: Human Aortic Endothelial Cells; conditions: aortic endothelial cells treated with 12(S)-HETE; cited from earlier work
[10] = system: c-jun amino terminal kinase (JNK); conditions: Wen et al. 1997, cited from earlier work
[11] = system: mitogen activated protein kinase; conditions: CHO-AT1a cells; cited from earlier work
15-HETE receptor = conditions: PT-18 cells; cited from earlier work
5-LO = conditions: PT-18 cells; cited from earlier work
[12] = system: human epidermal carcinoma cell line; conditions: saturation binding; cited from earlier work
[13] = system: vascular endothelial growth factor (VEGF) gene expression; conditions: vascular smooth muscle; cited from earlier work
[14] = system: tumor cell adhesion to endothelial cells; conditions: Honn et al. 1994; cited from earlier work
[15] = system: vascular smooth muscle cells (VSMC); conditions: cited from earlier work
[16] = system: 12(S)-HETE receptors on the cell surface of murine melanoma cells; conditions: Liu et al. 1995; cited from earlier work
murine melanoma cells = conditions: Liu et al. 1995; cited from earlier work

Structure (SMILES): CCCCC/C=C\C[C@H](O)/C=C/C=C\C/C=C\CCCC(=O)O [12(S)-HETE, (S)-12-hydroxyeicosatetraenoic acid]
- blockade/displacement of [3H]12(S)-HETE binding [1]: displaced; also recorded: blocked
- Kd ([1]; [3H]12(S)-HETE, 2 hr, read-out: Kd of 12(S)-HETE binding (one site fit model)): 38.4 nM
- specific high affinity 12(S)-HETE binding sites in mock transfected cells [2]: not in mock transfected cells
- mitogenic effects in CHO-AT1a cells (CHO-AT1a cells [3]): had mitogenic effects
- mitogenic effects in mock transfected cells [4]: not in mock transfected cells
- mitogenic effects in CHO-AT1b cells [5]: nor in CHO cells overexpressing the angiotensin AT1b receptor
- PAK activation (PAK): directly increase; also recorded: PAK activation
- monocyte adhesion vs untreated cells [6]: increased adhesion
- mitogenic effects in CHO-AT1a cells (CHO-AT1a cells [7]): direct mitogenic effects
- mitogenic effects in mock transfected cells [8]: did not have any mitogenic effects
- monocyte binding to aortic endothelial cells [9]: increases monocyte binding
- c-jun amino terminal kinase activity in CHO-AT1a cells ([10]; CHO-AT1a cells): significant increase
- JNK activation [10]: activates
- mitogen activated protein kinase activity [11]: significant increase
- competition with [3H]15-HETE binding (15-HETE receptor): effective competitor
- stimulation of the lipoxygenase (5-LO): did not stimulate
- stimulation of cell growth [12]: did not stimulate cell growth
- VEGF gene expression [13]: stimulate
- tumor cell adhesion to endothelial cells [14]: enhance
- chemoattraction of vascular smooth muscle cells [15]: potent chemoattractant

Structure (SMILES): CCCCC[C@H](O)/C=C/C=C\CCCCCCCC(=O)O [13(s)-hydroxyoctadecadienoic acid]
- blockade of 12(S)-HETE binding to melanoma cell receptors [16]: blocked
- effect on 12(S)-HETE increased adhesion to fibronectin (murine melanoma cells): ablating
